Data: PubChem BioAssay AID504467 (National Center for Advancing Translational Sciences (NCATS), 2011)
Out of some 330,000 compounds screened, about 7,700 (2.3%) were called active. The shares of active, inactive and inconclusive entries below differ from those in the screen. Calls follow the shape of the dose curve; as a rule, active = well fitted inhibition curve with a large enough effect; inconclusive = small, poorly fitted or top-dose-only effect, or effect the other way; inactive = flat fitted curve, though single readings scatter. A potency beside an inconclusive call is a rough fit, not a confirmed value.

assay: qHTS screen for small molecules that inhibit ELG1-dependent DNA repair in human embryonic kidney (HEK293T) cells expressing luciferase-tagged ELG1; conditions: HEK293T ELG1-luciferase reporter, luminescence, 16 h, DNA damage induced by 5-fluorouridine; series mostly up to 46.1 µM; also: nearly all actives have a fitted effect of over 55% in size
Summary of the method: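 Overnight (16 hr) co-exposure of 2,000 cells/well to 5-fluorouridine and compound at 37 °C preceded detection. Luciferase was quantified via ONE-Glo luminescence; loss of signal denotes inhibition.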
Potency is read from the fitted curve at half-maximal effect.

SMILES | Potency
CCCC(=O)N(C)c1nnc(-c2ccc(OC)cc2)s1 | inconclusive: 16.4 µM [activator, partial curve]
CN(C)c1ccc(/C=N/NC(=O)c2ccnn2C)cc1 | inconclusive: 7.3 µM [activator, partial curve]
Fc1ccc(NC(=S)Nc2ccc(Cl)cc2Cl)cc1 | inconclusive: 16.4 µM [inhibitor, single point]
Cc1ccccc1-c1nc(CN2CCCC(C(=O)NCCCN3CCOCC3)C2)c(C)o1 (centres undefined) | inactive
Cc1ccccc1OCC(=O)N/N=C/C=C/c1ccccc1 | inactive
CCN(CC)c1nc2ccccc2c(N)c1-c1ccccc1 | inconclusive: 11.2 µM [inhibitor, partial curve, poor fit]
Cc1nc2c(C(=O)Nc3ccc(N4CCCC(O)C4)cc3)snc2c(=O)[nH]1 (centres undefined) | inconclusive: 4.61 µM [activator, full curve, poor fit]
O=C(CSc1nnnn1C1CCCCC1)NCCc1ccccc1 | inconclusive: 20.6 µM [activator, partial curve]
O=C(NCc1ccc2c(c1)OCO2)C1CC(c2ccccc2O)=NO1 (centres undefined) | inactive
CC(C)(C)c1ccc(C(=O)NCC(=O)N/N=C/c2cccnc2)cc1 | inconclusive: 25.9 µM [activator, partial curve, poor fit]
Cc1ccc(C(=O)N/C(=C/c2ccc(N(C)C)cc2)C(=O)NCC2CCCO2)cc1 (centres undefined) | inactive
CCN(C[C@H]1N[C@@](Cc2ccccc2)(C(=O)OC)[C@H]2C(=O)N(C)C(=O)[C@@H]12)S(=O)(=O)c1ccc(C(F)(F)F)cc1 | active: 23.1 µM
Cc1cc(=O)[nH]c(N/N=C/c2c[nH]c3ccccc23)n1 | inconclusive: 5.8 µM [activator, partial curve, poor fit]
O=Cc1cccc(Oc2ccc([N+](=O)[O-])cc2[N+](=O)[O-])c1 | inactive
CCOC(=O)c1sc2nc(SCC#N)n(CCCN3CCCC3=O)c(=O)c2c1C | inconclusive: 16.4 µM [inhibitor, single point]
CC(C)(C)c1ccc(C2(C)NC(=O)NC2=O)cc1 (centres undefined) | inactive
CCOC(=O)c1c(NC(=O)c2ccco2)sc(C(=O)N2CCCC2)c1C | inconclusive: 9.2 µM [inhibitor, partial curve, poor fit]
Cc1noc(/C=C/c2cccs2)c1S(=O)(=O)N1CCC(C(=O)NCCCN2CCC(C)CC2)CC1 | inactive
O=C(c1ccc(Cl)cc1)N1CCN(c2ccc(F)cc2)CC1 | inconclusive: 29.1 µM [activator, partial curve, poor fit]

Two entries from above, in CSV form:
SMILES,Potency
O=C(CSc1nnnn1C1CCCCC1)NCCc1ccccc1,"inconclusive: 20.6 µM [activator, partial curve]"
Cc1noc(/C=C/c2cccs2)c1S(=O)(=O)N1CCC(C(=O)NCCCN2CCC(C)CC2)CC1,inactive
